This data set is described as follows: general procedure: Fmoc solid-phase peptide synthesis; Oxyma/DIC. The settings on record: whole synthesis; for isolated yield: on resin loading.

The values below come from patent US20260042795 (published 2026).

For the substance (KL)4(KKL)2KKL, the crude yield reads like this: (run 1) 64.9%; (run 2) 53.9%; (run 3) 42.2%; (run 4) 46.4%.

fPRPGGGGNGDFEEIPEEYL: the isolated yield runs as follows: (run 1) 46.3%; (run 2) 38.7%.
